Measurements from publication PMC7094076.

Amino acid sequences for entries named in this document (tags omitted). A change or cut given only in a name is not applied to a line headed by its entry.
UniProt F4JZD0: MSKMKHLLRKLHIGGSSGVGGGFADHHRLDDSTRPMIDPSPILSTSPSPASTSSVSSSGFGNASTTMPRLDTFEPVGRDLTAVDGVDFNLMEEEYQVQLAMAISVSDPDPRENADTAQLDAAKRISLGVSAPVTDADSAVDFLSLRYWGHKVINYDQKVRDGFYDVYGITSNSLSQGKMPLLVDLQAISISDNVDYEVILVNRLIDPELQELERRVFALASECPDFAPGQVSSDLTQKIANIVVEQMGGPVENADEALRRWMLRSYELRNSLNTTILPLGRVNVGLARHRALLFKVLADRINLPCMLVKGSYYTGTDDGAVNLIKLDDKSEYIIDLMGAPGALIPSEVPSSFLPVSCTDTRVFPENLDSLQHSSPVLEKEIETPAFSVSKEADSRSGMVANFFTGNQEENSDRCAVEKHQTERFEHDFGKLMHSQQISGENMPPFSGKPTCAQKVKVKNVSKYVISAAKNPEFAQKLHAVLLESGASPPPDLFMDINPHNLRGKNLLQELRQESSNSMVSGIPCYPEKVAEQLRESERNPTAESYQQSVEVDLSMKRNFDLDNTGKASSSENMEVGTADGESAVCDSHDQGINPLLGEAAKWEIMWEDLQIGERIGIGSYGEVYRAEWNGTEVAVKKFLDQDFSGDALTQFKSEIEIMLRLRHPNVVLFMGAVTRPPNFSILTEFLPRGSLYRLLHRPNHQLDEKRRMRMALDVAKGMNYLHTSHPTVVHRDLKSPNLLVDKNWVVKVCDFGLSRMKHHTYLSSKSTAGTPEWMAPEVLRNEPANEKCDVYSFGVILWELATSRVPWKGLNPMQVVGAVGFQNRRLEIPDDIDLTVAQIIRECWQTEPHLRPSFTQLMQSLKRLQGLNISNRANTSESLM

How the values were obtained:
[1] = molecular target: T1, MKK5 (split Venus fusion, BiFC in onion epidermis) (Arabidopsis) (UniProt Q8RXG3); experiment: split reporter; BiFC with split monomeric Venus (binary V10-BiFC vectors), transient, biolistic bombardment of onion epidermal cells
T1 sequence: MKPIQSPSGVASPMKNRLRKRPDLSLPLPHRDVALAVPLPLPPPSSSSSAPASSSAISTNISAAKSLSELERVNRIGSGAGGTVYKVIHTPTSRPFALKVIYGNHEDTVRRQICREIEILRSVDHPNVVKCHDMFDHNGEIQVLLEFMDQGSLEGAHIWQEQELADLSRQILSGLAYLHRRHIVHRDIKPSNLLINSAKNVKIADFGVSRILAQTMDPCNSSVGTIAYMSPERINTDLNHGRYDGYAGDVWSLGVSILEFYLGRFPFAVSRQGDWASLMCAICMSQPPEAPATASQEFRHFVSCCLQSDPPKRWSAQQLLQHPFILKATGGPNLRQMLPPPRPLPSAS

[2] = molecular target: T2, MKK2 (split Venus fusion, BiFC in onion epidermis) (Arabidopsis) (UniProt Q9S7U9); experiment: as above
T2 sequence: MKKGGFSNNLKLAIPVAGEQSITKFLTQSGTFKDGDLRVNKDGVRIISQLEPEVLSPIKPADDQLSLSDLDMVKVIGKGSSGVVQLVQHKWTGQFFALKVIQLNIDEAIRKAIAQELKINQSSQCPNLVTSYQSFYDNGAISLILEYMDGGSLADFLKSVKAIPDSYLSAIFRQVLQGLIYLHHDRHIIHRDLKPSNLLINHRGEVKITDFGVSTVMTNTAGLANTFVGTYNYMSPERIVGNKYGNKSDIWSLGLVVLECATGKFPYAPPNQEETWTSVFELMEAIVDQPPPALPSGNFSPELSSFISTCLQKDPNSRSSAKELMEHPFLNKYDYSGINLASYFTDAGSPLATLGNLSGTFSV

[3] = molecular target: T3, MKK1 (split Venus fusion, BiFC in onion epidermis) (Arabidopsis) (UniProt Q94A06); experiment: as above
T3 sequence: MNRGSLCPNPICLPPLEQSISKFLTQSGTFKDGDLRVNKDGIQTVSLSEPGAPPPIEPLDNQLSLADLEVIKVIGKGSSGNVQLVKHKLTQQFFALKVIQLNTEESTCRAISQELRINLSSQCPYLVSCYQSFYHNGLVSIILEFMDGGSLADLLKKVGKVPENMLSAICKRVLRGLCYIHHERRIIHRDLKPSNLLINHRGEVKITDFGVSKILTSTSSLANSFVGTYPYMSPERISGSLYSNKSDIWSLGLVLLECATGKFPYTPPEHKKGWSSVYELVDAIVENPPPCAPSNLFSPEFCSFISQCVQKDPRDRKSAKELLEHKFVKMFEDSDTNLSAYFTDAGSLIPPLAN

[4] = molecular target: T4, AtNFXL1 fused to YFPN (BiFC, transgenic Arabidopsis) (Arabidopsis) (UniProt Q9SY59); experiment: split reporter; BiFC in transgenic Arabidopsis plants: YFPN fusion plants pollinated with YFPC–MKD1 plants, grown on MS medium for 10 d; YFP signal by microscopy (root tip)
T4 sequence: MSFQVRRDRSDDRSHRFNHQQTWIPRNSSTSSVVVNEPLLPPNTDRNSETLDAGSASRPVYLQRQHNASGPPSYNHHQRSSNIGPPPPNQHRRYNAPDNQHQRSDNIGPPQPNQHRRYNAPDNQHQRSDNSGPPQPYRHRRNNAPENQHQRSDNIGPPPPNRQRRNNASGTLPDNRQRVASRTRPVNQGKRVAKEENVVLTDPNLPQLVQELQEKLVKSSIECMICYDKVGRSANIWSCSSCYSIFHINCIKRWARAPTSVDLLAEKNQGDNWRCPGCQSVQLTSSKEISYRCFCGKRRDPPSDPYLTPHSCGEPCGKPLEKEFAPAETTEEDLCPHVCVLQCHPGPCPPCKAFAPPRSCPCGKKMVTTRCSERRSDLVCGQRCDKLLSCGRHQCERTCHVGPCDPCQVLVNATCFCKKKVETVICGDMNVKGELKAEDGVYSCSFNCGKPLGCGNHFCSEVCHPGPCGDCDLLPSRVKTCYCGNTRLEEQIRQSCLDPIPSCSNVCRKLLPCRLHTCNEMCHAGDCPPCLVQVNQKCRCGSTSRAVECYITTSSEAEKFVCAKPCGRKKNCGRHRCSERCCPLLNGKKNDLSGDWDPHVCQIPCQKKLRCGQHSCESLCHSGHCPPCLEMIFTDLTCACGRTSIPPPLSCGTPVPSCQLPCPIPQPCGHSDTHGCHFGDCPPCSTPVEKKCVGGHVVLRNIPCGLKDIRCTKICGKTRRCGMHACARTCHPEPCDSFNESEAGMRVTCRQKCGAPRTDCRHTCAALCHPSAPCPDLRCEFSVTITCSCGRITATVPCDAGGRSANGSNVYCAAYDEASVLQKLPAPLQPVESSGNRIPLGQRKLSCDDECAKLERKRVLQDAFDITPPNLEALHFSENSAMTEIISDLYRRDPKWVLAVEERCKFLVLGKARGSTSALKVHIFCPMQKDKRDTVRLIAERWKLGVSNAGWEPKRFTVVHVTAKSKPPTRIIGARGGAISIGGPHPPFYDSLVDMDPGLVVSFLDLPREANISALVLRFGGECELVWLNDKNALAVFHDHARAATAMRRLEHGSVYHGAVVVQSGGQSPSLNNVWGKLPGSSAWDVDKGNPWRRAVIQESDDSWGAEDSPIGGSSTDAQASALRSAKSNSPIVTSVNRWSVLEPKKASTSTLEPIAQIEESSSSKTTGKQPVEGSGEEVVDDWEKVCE

YFPN–MKK5 (Arabidopsis) = molecular target: T5, YFPN–MKK5 (Arabidopsis) (UniProt Q8RXG3); experiment: as above
T5 sequence: T1 sequence

YFPN–MKK2 (Arabidopsis) = molecular target: T6, YFPN–MKK2 (Arabidopsis) (UniProt Q9S7U9); experiment: as above
T6 sequence: T2 sequence

YFPN–MKK1 (Arabidopsis) = molecular target: T7, YFPN–MKK1 (Arabidopsis) (UniProt Q94A06); experiment: as above
T7 sequence: T3 sequence

[5] = molecular target: T8, MKK2 (yeast two-hybrid fusion in pGBKT7) (Arabidopsis) (UniProt Q9S7U9); experiment: two-hybrid; MKKs in pGBKT7, MKD1 and MPKs in pGADT7, yeast strain Y190; β-galactosidase activity measured in diploids
T8 sequence: T2 sequence

[6] = molecular target: T9, MKK5 (yeast two-hybrid fusion in pGBKT7) (Arabidopsis) (UniProt Q8RXG3); experiment: as above
T9 sequence: T1 sequence

[7] = molecular target: T10, MKK1 (yeast two-hybrid fusion in pGBKT7) (Arabidopsis) (UniProt Q94A06); experiment: as above
T10 sequence: T3 sequence

Substance: MKD1 (split Venus fusion, BiFC in onion epidermis) (from UniProt F4JZD0)
- binding [1]: binds
- binding [2]: binds
- binding [3]: binds

Substance: YFPC–MKD1 (Arabidopsis)
- binding [4]: binds
- binding (YFPN–MKK5 (Arabidopsis)): binds
- binding (YFPN–MKK2 (Arabidopsis)): binds
- binding (YFPN–MKK1 (Arabidopsis)): binds

Substance: kinase domain of MKD1 (yeast two-hybrid fusion in pGADT7) (Arabidopsis) (domain or fragment)
- binding [5]: binds weakly
- binding [6]: no binding
- binding [7]: binds weakly

Substance: full-length MKD1 (yeast two-hybrid fusion in pGADT7) (from UniProt F4JZD0)
- binding [5]: binds
- binding [6]: binds
- binding [7]: binds

No constants are given. Whether binding was seen depends on the method and setting. Binding calls can cover weak binding; strength is not graded here. For some of these results: Where a sequence is shown, tags or fusion partners need not be part of it. For some of these results: In cells and extracts the contact can be indirect.
